Reference: patent publication US20210403913
For at least one entry, the source does not settle the construct or the ends of the probe. A negative result means that nothing was seen under these conditions. For some of these results: Where a protein sequence is shown, tags need not be part of it.

The chains behind the UniProt entries cited, without tags or fusion partners. Residues count along the entry.
UniProt P19876, 35-107: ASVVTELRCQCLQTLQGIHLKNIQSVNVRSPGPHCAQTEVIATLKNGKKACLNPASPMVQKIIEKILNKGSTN
UniProt P80162, 38-114: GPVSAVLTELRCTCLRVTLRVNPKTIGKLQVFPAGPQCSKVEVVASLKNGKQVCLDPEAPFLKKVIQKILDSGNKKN
UniProt P09341, 35-107: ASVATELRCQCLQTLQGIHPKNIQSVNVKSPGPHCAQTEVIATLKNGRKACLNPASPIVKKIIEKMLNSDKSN
UniProt P42830, 37-114: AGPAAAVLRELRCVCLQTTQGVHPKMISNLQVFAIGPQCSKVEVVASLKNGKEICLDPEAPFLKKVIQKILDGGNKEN
UniProt P19875, 35-107: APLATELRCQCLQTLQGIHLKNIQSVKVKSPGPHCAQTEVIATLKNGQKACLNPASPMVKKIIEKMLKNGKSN

Experiments:
Test in all cases: SPR
CXCL3 (Homo sapiens) = CXCL3 (Homo sapiens) (UniProt P19876); settings: L-RNA; purified recombinant protein; protein details: RnD Systems, PeproTech or ProSpecTech; mirror-image nucleic acid; variant of 315-F8-001 (L)
CXCL6 (Homo sapiens) = CXCL6 (Homo sapiens) (UniProt P80162); settings: L-RNA; purified recombinant protein; protein details: RnD Systems, PeproTech or ProSpecTech; mirror-image nucleic acid; variant of 315-F8-001 (L)
CXCL1 (Homo sapiens) = CXCL1 (Homo sapiens) (UniProt P09341); settings: L-RNA; purified recombinant protein; protein details: RnD Systems, PeproTech or ProSpecTech; mirror-image nucleic acid; variant of 315-F8-001 (L)
CXCL5 (Homo sapiens) = CXCL5 (Homo sapiens) (UniProt P42830); settings: L-RNA; purified recombinant protein; protein details: RnD Systems, PeproTech or ProSpecTech; mirror-image nucleic acid; variant of 315-F8-001 (L)
CXCL7 (Homo sapiens) = target: T1, CXCL7 (Homo sapiens) (UniProt P02775); settings: L-RNA; purified recombinant protein; protein details: RnD Systems, PeproTech or ProSpecTech; mirror-image nucleic acid; variant of 315-F8-001 (L)
T1 sequence: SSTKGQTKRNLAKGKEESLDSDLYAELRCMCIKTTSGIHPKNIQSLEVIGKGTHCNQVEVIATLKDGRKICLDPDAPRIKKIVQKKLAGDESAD

CXCL2 (Homo sapiens) = CXCL2 (Homo sapiens) (UniProt P19875); settings: L-RNA; purified recombinant protein; protein details: RnD Systems, PeproTech or ProSpecTech; mirror-image nucleic acid; variant of 315-F8-001 (L)
CCL5 (Homo sapiens) = target: T2, CCL5 (Homo sapiens) (UniProt P13501); settings: L-RNA; 5'-amino linker coupled to DBCO, immobilised; biosensor; no binding up to 12.5 nM CCL5; 25 C; purified recombinant protein; mirror-image nucleic acid; variant of 315-F8-002 (L)
T2 sequence: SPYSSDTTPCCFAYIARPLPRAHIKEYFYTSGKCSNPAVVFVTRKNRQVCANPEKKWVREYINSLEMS

Measured: binding result

CUGACGGAAGUACGUGGAAAGCCGAAAGUGUGUCCCGGUCAG [315-F8-002 (L)]
no binding: CXCL3 (Homo sapiens) | CXCL6 (Homo sapiens) | CXCL1 (Homo sapiens) | CXCL5 (Homo sapiens) | CXCL7 (Homo sapiens) | CXCL2 (Homo sapiens)

CUGACGGAAGUACGUGGAAAGCCGAAAGUGUGUCCCGGUCAG [315-F8-002-DBCO]
no binding: CCL5 (Homo sapiens)
